Counter-ions that a name gives are not always drawn. This is one part of the list. Single values are uncertain here, since repeats match poorly.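 Human fetal ventral-midbrain neural progenitor line ReNCell VM, differentiated without mitogens. Images stained for doublecortin (early neurons) or tyrosine hydroxylase (dopaminergic neurons) were scored by blinded raters against untreated wells (0 = no change). Repeats and both raters were averaged, and compounds averaging 2 or higher were picked as hits for retesting.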

We go through 33 compounds from the supplement of paper PMC4635364.

Test [1] deals with ReNCell VM. Description: neuronal differentiation score (DCX+ cell fraction vs untreated, manual image score) (score (-3 to 3)); higher = more neuronal differentiation. Conditions: 2 uM, 2 weeks.
In test [2] the test system is ReNCell VM. Description: dopaminergic neuron differentiation score (TH+ cell fraction vs untreated, manual image score) (score (0 to 3)); higher = more TH+ dopaminergic neuron differentiation. The following applies: 2 uM, 4 weeks, BDNF 10 ng/ml + GDNF 10 ng/ml.

With `OCCN1CCN(CCCN2c3ccccc3Sc3ccc(C(F)(F)F)cc32)CC1`, the neuronal differentiation score in test [1] (library: Spectrum) is inactive: 1. Further, the “dopaminergic neuron differentiation score” value in test [2] (library: Spectrum) is inactive: 1.
As to `CC(C)NC[C@@H](O)COc1ccc(CC(N)=O)cc1` [(R)-(+)-Atenolol], in test [1] (library: Prestwick), the neuronal differentiation score is inactive: 0. In addition, the “dopaminergic neuron differentiation score” value in test [2] (library: Prestwick) is inactive: 0.
For the compound `CC(=O)Nc1cccc(O)c1`, the neuronal differentiation score in test [1] (library: Spectrum) is inactive: 0. For the same compound, the “dopaminergic neuron differentiation score” value in test [2] (library: Spectrum) was inactive: 0.
For `O=C(CCCCCCCCCCCCC1CCCC1)Nc1ccc(S(=O)(=O)c2ccc(NC(=O)CCCCCCCCCCCCC3CCCC3)cc2)cc1`, the neuronal differentiation score in test [1] (library: Spectrum) is inactive: 0. Moreover, the “dopaminergic neuron differentiation score” value in test [2] (library: Spectrum) was inactive: 0.
Take `Clc1ccc(-c2nc3sccn3c2/C=N/OCc2ccc(Cl)c(Cl)c2)cc1`: the neuronal differentiation score in test [1] (library: Tocriscreen) was inactive: 0. Moreover, the “dopaminergic neuron differentiation score” value in test [2] (library: Tocriscreen) was inactive: 1.
In the case of `COc1cccc(OC)c1OCCNCC1COc2ccccc2O1` (stereo unspecified) [WB 4101 hydrochloride], the neuronal differentiation score in test [1] (library: Tocriscreen) is inactive: 1. Moreover, the “dopaminergic neuron differentiation score” value in test [2] (library: Tocriscreen) is inactive: 0.
Consider `COc1cc(CNC(=O)CCCC/C=C/C(C)C)ccc1O` [Capsaicin], for which the neuronal differentiation score in test [1] (library: Phytochemical) is inactive: 0. Besides, the “dopaminergic neuron differentiation score” value in test [2] (library: Phytochemical) was inactive: 0.
Take `O=c1c(-c2ccc(O)cc2)coc2cc(O)cc(O)c12`: in test [1] (library: Spectrum), the neuronal differentiation score is inactive: 0. Also, in test [2] (library: Spectrum), the “dopaminergic neuron differentiation score” value was inactive: 0.
For the compound `CCCCCCCCCCCCCCCC(=O)OC/C=C(C)/C=C/C=C(C)/C=C/C1=C(C)CCCC1(C)C`, the neuronal differentiation score in test [1] (library: Spectrum) is inactive: 0. Besides, in test [2] (library: Spectrum), the “dopaminergic neuron differentiation score” value was inactive: 0.
As to `NC1C=CC=C(C(=O)O)C1` (stereo unspecified) [Gabaculine hydrochloride], the neuronal differentiation score in test [1] (library: LOPAC) is inactive: 0. In addition, in test [2] (library: LOPAC), the “dopaminergic neuron differentiation score” value is inactive: 0.
For the compound `CCOC(=O)c1c(C)[nH]c2ccc3c(c12)CN1CCc2cc(OC)ccc2C1O3` (stereo unspecified), in test [1] (library: Tocriscreen), the neuronal differentiation score is inactive: 0. Further, the “dopaminergic neuron differentiation score” value in test [2] (library: Tocriscreen) was inactive: 0.
For `CCOC(=O)C1=C[C@@H](OC(CC)CC)[C@H](NC(C)=O)[C@@H](N)C1`, the neuronal differentiation score in test [1] (library: Spectrum) is inactive: 0. Also, in test [2] (library: Spectrum), the “dopaminergic neuron differentiation score” value is inactive: 0.
Regarding `Cc1c(C(=O)NN2CCOCC2)nn(-c2ccc(Cl)cc2Cl)c1-c1ccc(I)cc1`, the neuronal differentiation score in test [1] (library: Tocriscreen) was inactive: 0. Besides, the “dopaminergic neuron differentiation score” value in test [2] (library: Tocriscreen) was inactive: 0.
With `CCCCCCCC/C=C\CCCCCCCC(=O)NCc1ccc(O)c(OC)c1` [Olvanil], the neuronal differentiation score in test [1] (library: Tocriscreen) was inactive: 0. Also, the “dopaminergic neuron differentiation score” value in test [2] (library: Tocriscreen) is inactive: 0.
For the compound `O=c1[nH]c(=O)n([C@H]2C[C@H](O)[C@@H](CO)O2)cc1C(F)(F)F` [Trifluridine], in test [1] (library: Prestwick), the neuronal differentiation score is inactive: 0. The “dopaminergic neuron differentiation score” value in test [2] (library: Prestwick) was inactive: 0.
Consider `C=CCc1ccc(O)c(-c2ccc(O)c(CC=C)c2)c1` [honokiol], for which the neuronal differentiation score in test [1] (library: Natural) is inactive: 0. Moreover, the “dopaminergic neuron differentiation score” value in test [2] (library: Natural) is inactive: 0.
As for `Cc1cc(C)nc(NS(=O)(=O)c2ccc(N)cc2)n1`, the neuronal differentiation score in test [1] (library: Spectrum) is inactive: -1. For the same compound, in test [2] (library: Spectrum), the “dopaminergic neuron differentiation score” value is inactive: 0.
Turning to `COc1ccc(C(=O)NCc2cccnc2)cc1C(=O)NCc1cccnc1` [Picotamide], the neuronal differentiation score in test [1] (library: LOPAC) is inactive: 1. The “dopaminergic neuron differentiation score” value in test [2] (library: LOPAC) was inactive: 0.
Regarding `COc1ccc(OC)c(C(O)CNC(=O)CN)c1` (stereo unspecified) [Midodrine hydrochloride], the neuronal differentiation score in test [1] (library: Prestwick) was inactive: 0. The “dopaminergic neuron differentiation score” value in test [2] (library: Prestwick) is inactive: 0.
As to `CCn1cc(C(=O)O)c(=O)c2cnc(N3CCNCC3)nc21` [Pipemidic acid], the neuronal differentiation score in test [1] (library: Prestwick) is inactive: 0. Besides, the “dopaminergic neuron differentiation score” value in test [2] (library: Prestwick) is inactive: 0.
Consider `COC(=O)C[C@H]1C(C)(C)C(=O)[C@@H]2CC3=C(CC[C@]4(C)C3=CC(=O)O[C@H]4c3ccoc3)[C@@]1(C)C2=O`, for which, in test [1] (library: Spectrum), the neuronal differentiation score is inactive: 0. Besides, the “dopaminergic neuron differentiation score” value in test [2] (library: Spectrum) is inactive: 0.
Consider `CC1=C(C)C(=O)C(C(CCCCCC(=O)O)c2ccccc2)=C(C)C1=O` (stereo unspecified), for which the neuronal differentiation score in test [1] (library: Spectrum) was inactive: 0. Also, the “dopaminergic neuron differentiation score” value in test [2] (library: Spectrum) was inactive: 0.
As for `C=C[C@H]1CN2CC[C@H]1C[C@@H]2[C@@H](O)c1ccnc2ccc(OC)cc12` [Quinidine sulfate], the neuronal differentiation score in test [1] (library: LOPAC) was inactive: 0. The “dopaminergic neuron differentiation score” value in test [2] (library: LOPAC) was inactive: 0.
Consider `CC(C)=CCc1c2c(c3occ(-c4ccc(O)cc4)c(=O)c3c1O)C=CC(C)(C)O2`, for which, in test [1] (library: Spectrum), the neuronal differentiation score is inactive: 0. In test [2] (library: Spectrum), the “dopaminergic neuron differentiation score” value is inactive: 0.
Take `Cc1nc2ccc(NC(=O)Nc3ccnc4cccnc34)cc2o1`: the neuronal differentiation score in test [1] (library: Tocriscreen) was inactive: 0. In addition, the “dopaminergic neuron differentiation score” value in test [2] (library: Tocriscreen) was inactive: 0.
For `COc1ccc(/C=C/C(=O)Nc2ccccc2C(=O)O)cc1OC`, the neuronal differentiation score in test [1] (library: Spectrum) was inactive: 0. Further, the “dopaminergic neuron differentiation score” value in test [2] (library: Spectrum) is inactive: 0.
`O=C1OC(CN2CCOCC2)CN1/N=C/c1ccc([N+](=O)[O-])o1` (stereo unspecified) [Furaltadone hydrochloride]: the neuronal differentiation score in test [1] (library: Prestwick) was inactive: 0. Besides, the “dopaminergic neuron differentiation score” value in test [2] (library: Prestwick) is inactive: 0.
Consider `COc1ccc([C@@H](C)C(=O)c2ccc(O)cc2O)cc1` [angolensin (r)], for which, in test [1] (library: Natural), the neuronal differentiation score was inactive: 0. For the same compound, the “dopaminergic neuron differentiation score” value in test [2] (library: Natural) is inactive: 0.
Take `NCc1ccccc1CC(=O)N[C@@H]1C(=O)N2C(C(=O)O)=C(CSc3nnnn3CC(=O)O)CS[C@H]12`: in test [1] (library: Spectrum), the neuronal differentiation score is inactive: 0. Further, the “dopaminergic neuron differentiation score” value in test [2] (library: Spectrum) was inactive: 0.
As for `O=C1C2=C(SC3OC(CO)C(O)C(O)C3O2)C(=O)c2ccccc21` (stereo unspecified), in test [1] (library: Natural), the neuronal differentiation score was inactive: 0. Also, the “dopaminergic neuron differentiation score” value in test [2] (library: Natural) was inactive: 0.
For `CC(=O)CC(c1ccccc1)c1c(O)c2ccccc2oc1=O` (stereo unspecified) [Warfarin], the neuronal differentiation score in test [1] (library: Prestwick) was inactive: 0. The “dopaminergic neuron differentiation score” value in test [2] (library: Prestwick) was inactive: 0.
With `COc1ccc(-c2cc(=O)c3c(OC(C)=O)cc(OC(C)=O)cc3o2)cc1`, in test [1] (library: Spectrum), the neuronal differentiation score was inactive: 0. In test [2] (library: Spectrum), the “dopaminergic neuron differentiation score” value is inactive: 0.
Consider `Cc1c(C(=O)NC2CCCCC2)sc2nc3ccc(N)cc3n12`, for which the neuronal differentiation score in test [1] (library: Tocriscreen) is inactive: 0. Further, the “dopaminergic neuron differentiation score” value in test [2] (library: Tocriscreen) is inactive: 0.
